For at least one compound, name, drawing or mass did not settle the structure.
Experiments:
[1] = test system: human patient-derived xenografts; assay: Xenograft-derived chemical screen (Supplemental Table 3); format: cell-based; conditions: 60 agent PPTI screen
Method: Three chemical screens were applied to the U23674 primary tumor cell culture. […] The target inhibition profile is a quantified description of the inhibitory properties of the compound on the numerous protein targets preset on the PPTI screen.
To screen the chemical agents, cell cultures were plated in 384 well plates at a seeding density of 2000 cells per well over graded concentrations of the numerous compounds. The chemical concentrations were between 10 nM and […] depending on the activity range of the compounds. The cells were incubated in DMEM supplemented with 1% penicillin streptomycin, and 10% fetal bovine serum for 72 hours. Chemical sensitivity was determined by an MTS cell viability assay after the 72 hour incubation period. The sensitivity responses at the different concentrations were used to determine the chemical IC50 using a hill curve fitting algorithm with variable hill slope coefficients.

[2] = test system: U23674 primary tumor cell culture; assay: Chemical screens (GSK, Roche, PPTI), MTS cell viability assay; format: cell-based, mouse; conditions: PPTI screen

SMILES	IC50 Value [1]	efficacy / in vitro sensitivity [2]
CCN(CCCOc1ccc2c(Nc3cc(CC(=O)Nc4cccc(F)c4)n[nH]3)ncnc2c1)CCOP(=O)(O)O [barasertib]	>conc tested	
Cc1ccc(Nc2nccc(N(C)c3ccc4c(C)n(C)nc4c3)n2)cc1S(N)(=O)=O [pazopanib]	>conc tested	
COc1cc2nccc(Oc3ccc(NC(=O)C4(C(=O)Nc5ccc(F)cc5)CC4)cc3)c2cc1OC [cabozantinib]	>conc tested	
CCCS(=O)(=O)Nc1ccc(F)c(C(=O)c2c[nH]c3ncc(-c4ccc(Cl)cc4)cc23)c1F [vemurafenib]	>conc tested	
Oc1c2ccccc2c2c3c(cccc13)N=N2 [SP600125]	>conc tested	
N#CC[C@H](C1CCCC1)n1cc(-c2ncnc3[nH]ccc23)cn1 [ruxolitinib]	>conc tested	
CN1CCN(CCOc2cc(OC3CCOCC3)c3c(Nc4c(Cl)ccc5c4OCO5)ncnc3c2)CC1 [saracatinib]	>conc tested	
CCN(CC)CCNC(=O)c1c(C)[nH]c(/C=C2\C(=O)Nc3ccc(F)cc32)c1C [Sunitinib]		lack of efficacy
Cn1cnc2c(F)c(Nc3ccc(Br)cc3Cl)c(C(=O)NOCCO)cc21 [selumetinib]	>conc tested	
COC1=CC(c2cc3ccccc3[nH]2)=N/C1=C\c1[nH]c(C)cc1C [Obatoclax]	>conc tested	
Cc1nc(Nc2ncc(C(=O)Nc3c(C)cccc3Cl)s2)cc(N2CCN(CCO)CC2)n1 [dasatinib]	>conc tested	

Source: patent publication US20150269307A1, “TARGET INHIBITION MAP SYSTEM FOR COMBINATION THERAPY DESIGN AND METHODS OF USING SAME” (Texas Tech University System, priority 2014, published 2015)
